Results reported in PMC11975395.
For at least one entry, the source does not settle the construct or the ends of the probe. At least one verdict rests on a figure or table, not on a statement of the authors. Protein sequences can lack the tags named with them.

Target: T1, MdZF32 (Malus domestica) (UniProt A0A540LDV7)
T1 sequence (looked up, limits assumed): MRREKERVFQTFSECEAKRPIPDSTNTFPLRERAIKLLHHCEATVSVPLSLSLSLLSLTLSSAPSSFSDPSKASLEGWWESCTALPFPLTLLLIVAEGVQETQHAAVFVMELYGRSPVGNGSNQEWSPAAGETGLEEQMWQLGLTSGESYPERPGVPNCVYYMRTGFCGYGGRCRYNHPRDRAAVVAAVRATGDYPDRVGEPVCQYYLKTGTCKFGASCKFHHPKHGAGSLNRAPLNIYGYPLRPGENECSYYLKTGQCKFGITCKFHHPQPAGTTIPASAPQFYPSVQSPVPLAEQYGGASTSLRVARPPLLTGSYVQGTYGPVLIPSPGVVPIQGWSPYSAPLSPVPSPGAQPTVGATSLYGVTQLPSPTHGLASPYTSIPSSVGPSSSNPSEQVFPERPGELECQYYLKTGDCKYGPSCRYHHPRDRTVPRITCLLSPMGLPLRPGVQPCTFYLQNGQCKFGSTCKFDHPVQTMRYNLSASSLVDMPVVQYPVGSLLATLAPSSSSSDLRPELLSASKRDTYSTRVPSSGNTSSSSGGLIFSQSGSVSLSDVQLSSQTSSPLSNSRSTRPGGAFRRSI
Assay: EMSA
Details: Light Shift Chemiluminescence EMSA Kit (Beyotime GS009); 3'-biotin dsDNA probes; cold probe at 100x and 200x; pH and temperature not stated; recombinant …; protein details: His (pET-30a+); label: 3' biotin

“TCAACGTTGAAAAAAAGAAGTACTATTACCATAAACTAAA (double strand) [MdACO1-P1 probe]”: binds.
